Assay results: US7026134B2 (priority 2001, dated 2006)
Read-outs that look alike come from different tables or passages of the source.

Tests used:
[1] = test system: IgG fraction of the antiserum raised to immunogen A (hapten A-BSA); type: binding, sheep; conditions: absorbance at 450 nm
Experimental: Aqueous solutions of the immunogens prepared in Examples 7 and 8 were formulated with Freund's Complete Adjuvant (FCA) to form emulsions consisting of 4 mg/ml immunogen A and 2 mg/ml immunogen B in 50% (v/v) FCA. Three sheep were immunized with each emulsion (1° immunizations), 0.25 ml being subcutaneously injected at each of four sites in the flank of each animal. The next immunizations (first boosts) contained 2 mg/ml immunogen A and 1 mg/ml immunogen B. Subsequent immunizations (boosts […]) contained 1 mg/ml of each immunogen. All boosts were emulsified in 50% (v/v) Freund's Incomplete Adjuvant (FIA) and administered to the appropriate sheep in the same manner as the 1° immunizations, at monthly intervals for 1 year. Blood sampling took place 7 to 14 days after each boost. Each sample was processed to produce antiserum which was further purified by caprylic acid and ammonium sulfate precipitation to yield an immunoglobulin G (IgG) fraction. The IgG fraction was evaluated by competitive ELISA microtiter plate assay, as described in Example 12 below.
(a) The wells of an enhanced binding 96-well polystyrene microtiter plate were coated with the IgG fraction of the antiserum raised to immunogen A (hapten A-BSA) (Example 7), diluted in 10 mM Tris, pH8.5 (125 μl/well). The appropriate antibody coating dilution was determined using standard ELISA chequerboard techniques. The plate was incubated for 2 hours at 37° C., washed 4 times with Tris-buffered saline containing Tween 20 (TBST) and tapped dry. […] 75 μl of conjugate A (hapten A-HRP) (Example 10), diluted in Tris buffer containing EDTA, D-mannitol, sucrose, thimerosal and BSA, was added to each of the wells. The appropriate dilution of conjugate was also determined using standard ELISA chequerboard techniques. The plate was incubated at 37° C. for 2 hours. The excess unbound conjugate was removed by washing 6 times over a 10 minute period with TBST. 125 μl of tetramethylbenzedine (TMB) substrate solution was added to each well of the plate that was then incubated for 15 to 20 minutes in the dark at room temperature. The reaction was terminated by addition of 125 μl 0.2M H2SO4 to each well. The absorbance was then measured at 450 nm using a microtiter plate reader.

[2] = test system: IgG fraction of the antiserum raised to immunogen B (hapten B-BSA); type: binding, sheep; conditions: absorbance at 450 nm
[3] = standard concentration 0.5 ng/ml
[4] = standard concentration 25 ng/ml
[5] = standard concentration 100 ng/ml
[6] = standard concentration 250 ng/ml
[7] = standard concentration 500 ng/ml
[8] = standard concentration 10 ng/ml
[9] = standard concentration 50 ng/ml
[10] = standard concentration 1000 ng/ml
[11] = standard concentration 2000 ng/ml

COc1ccc2c3c1O[C@H]1C(=O)CC[C@@]4(O)[C@@H](C2)NCC[C@]314 [Noroxycodone]
A450 [1, 3]: 2.290
A450 ([1]; standard concentration 1 ng/ml): 2.312
A450 ([1]; standard concentration 5 ng/ml): 2.314
A450 [1, 4]: 2.292
A450 [1, 5]: 2.254
A450 [1, 6]: 2.217
A450 [1, 7]: 2.141
A450 [2, 8]: 2.187
A450 [2, 9]: 1.709
A450 [2, 5]: 1.569
A450 [2, 6]: 1.254
A450 [2, 7]: 1.053
A450 [2, 10]: 0.785
A450 [2, 11]: 0.588

COc1ccc2c3c1O[C@H]1C(=O)CC[C@@]4(O)[C@@H](C2)N(C)CC[C@]314 [Oxycodone]
A450 [1, 3]: 2.185
A450 ([1]; standard concentration 1 ng/ml): 2.028
A450 ([1]; standard concentration 5 ng/ml): 1.464
A450 [1, 4]: 0.891
A450 [1, 6]: 0.366
A450 [1, 7]: 0.249
A450 [2, 8]: 1.679
A450 [2, 9]: 1.111
A450 [2, 5]: 0.928
A450 [2, 6]: 0.578
A450 [2, 7]: 0.394
A450 [2, 10]: 0.271
A450 [2, 11]: 0.185

CN1CC[C@]23c4c5ccc(O)c4O[C@H]2C(=O)CC[C@@]3(O)[C@H]1C5 [Oxymorphone]
A450 [1, 3]: 2.162
A450 ([1]; standard concentration 1 ng/ml): 2.103
A450 ([1]; standard concentration 5 ng/ml): 1.747
A450 [1, 4]: 1.328
A450 [1, 5]: 0.912
A450 [1, 6]: 0.679
A450 [1, 7]: 0.567
A450 [2, 8]: 2.421
A450 [2, 9]: 2.270
A450 [2, 5]: 2.216
A450 [2, 6]: 2.181
A450 [2, 7]: 2.101
A450 [2, 10]: 1.964
A450 [2, 11]: 1.788
